Measurements published in publication PMC12003058.
No constants are given. Whether binding was seen depends on the method and setting. In cells and extracts the contact can be indirect. Some results given as binding are weak or reduced against the parent protein; the word gives no strength. Tags and fused reporters may be left off the sequences shown.

Amino acid sequences for entries named in this document (tags omitted).
UniProt Q3TKT4: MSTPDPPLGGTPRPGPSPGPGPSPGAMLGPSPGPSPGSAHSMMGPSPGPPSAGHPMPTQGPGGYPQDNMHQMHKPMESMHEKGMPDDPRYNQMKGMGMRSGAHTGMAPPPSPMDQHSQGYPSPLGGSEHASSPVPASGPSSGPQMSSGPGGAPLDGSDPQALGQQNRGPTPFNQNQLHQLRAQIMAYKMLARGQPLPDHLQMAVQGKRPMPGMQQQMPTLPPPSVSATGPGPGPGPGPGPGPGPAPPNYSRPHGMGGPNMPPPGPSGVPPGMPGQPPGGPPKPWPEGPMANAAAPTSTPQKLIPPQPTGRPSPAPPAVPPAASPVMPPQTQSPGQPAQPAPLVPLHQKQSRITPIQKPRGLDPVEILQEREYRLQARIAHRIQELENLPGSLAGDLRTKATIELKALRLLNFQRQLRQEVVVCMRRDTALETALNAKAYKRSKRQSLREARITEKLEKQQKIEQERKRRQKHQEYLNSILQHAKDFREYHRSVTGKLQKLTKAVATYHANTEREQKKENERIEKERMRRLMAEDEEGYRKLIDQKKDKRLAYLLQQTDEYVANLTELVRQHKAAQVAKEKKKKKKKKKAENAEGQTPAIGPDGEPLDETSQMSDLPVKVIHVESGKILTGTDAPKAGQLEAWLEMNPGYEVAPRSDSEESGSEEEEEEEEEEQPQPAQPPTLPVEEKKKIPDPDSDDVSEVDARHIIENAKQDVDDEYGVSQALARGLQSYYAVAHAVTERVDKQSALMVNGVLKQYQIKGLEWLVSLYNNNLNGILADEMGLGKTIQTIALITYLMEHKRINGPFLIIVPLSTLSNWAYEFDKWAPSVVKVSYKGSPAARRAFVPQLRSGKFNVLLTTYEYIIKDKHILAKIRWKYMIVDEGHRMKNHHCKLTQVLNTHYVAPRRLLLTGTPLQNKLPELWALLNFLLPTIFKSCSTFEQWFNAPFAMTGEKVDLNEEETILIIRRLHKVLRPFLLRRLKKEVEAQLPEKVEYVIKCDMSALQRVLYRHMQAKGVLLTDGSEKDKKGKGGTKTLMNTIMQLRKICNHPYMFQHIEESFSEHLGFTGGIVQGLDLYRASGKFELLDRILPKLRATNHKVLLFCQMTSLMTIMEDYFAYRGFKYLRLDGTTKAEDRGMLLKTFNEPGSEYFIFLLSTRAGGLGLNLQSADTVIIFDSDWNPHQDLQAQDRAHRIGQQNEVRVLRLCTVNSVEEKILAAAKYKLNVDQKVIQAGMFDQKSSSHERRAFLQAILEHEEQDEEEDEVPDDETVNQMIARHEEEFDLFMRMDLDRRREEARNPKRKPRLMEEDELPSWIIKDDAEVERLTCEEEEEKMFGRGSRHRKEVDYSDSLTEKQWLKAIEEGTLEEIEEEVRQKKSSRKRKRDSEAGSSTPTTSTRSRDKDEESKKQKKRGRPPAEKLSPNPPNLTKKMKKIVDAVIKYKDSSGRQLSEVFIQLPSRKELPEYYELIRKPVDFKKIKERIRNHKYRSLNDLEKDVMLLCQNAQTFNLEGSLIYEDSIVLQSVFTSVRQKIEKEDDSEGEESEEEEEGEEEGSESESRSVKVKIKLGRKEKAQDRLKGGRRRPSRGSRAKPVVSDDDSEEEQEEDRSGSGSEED

Tests used:
[1] = target: T1, Letm1 domain containing 1 (Letmd1)-V5, expressed in brown adipocytes (UniProt Q924L1); experiment: co-IP; BAT cell lysate in IP lysis buffer (50 mM HEPES pH 7.4, 150 mM NaCl, 1% Triton X-100); Dynabeads protein A with anti-Brg1 or anti-V5; IgG controls; immunoblot
T1 sequence: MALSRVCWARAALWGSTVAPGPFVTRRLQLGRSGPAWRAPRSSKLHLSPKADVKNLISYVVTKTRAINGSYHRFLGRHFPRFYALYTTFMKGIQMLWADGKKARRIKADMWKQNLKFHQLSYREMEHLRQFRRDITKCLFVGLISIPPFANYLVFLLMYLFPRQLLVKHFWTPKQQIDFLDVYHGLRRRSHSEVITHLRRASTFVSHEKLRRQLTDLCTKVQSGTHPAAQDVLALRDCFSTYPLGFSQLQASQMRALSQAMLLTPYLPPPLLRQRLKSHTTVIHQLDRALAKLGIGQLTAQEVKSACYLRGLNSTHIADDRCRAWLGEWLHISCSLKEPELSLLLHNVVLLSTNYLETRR

[2] = target: T2, GST-Letmd1-Flag, full length (UniProt Q924L1); experiment: pull-down; 10 ug GST fusion protein (full length or deletion mutant) with glutathione-agarose beads and precleared lysate of HeLa cells expressing Brg1-V5 or Letmd1-V5; 6 hours at 4°C; four washes; blot with anti-V5 or anti-Flag; only the target purified
T2 sequence: T1 sequence

[3] = target: Brg1 (Smarca4), chromatin remodeling protein, in brown adipocytes (mouse (endogenous in primary BAT cells)) (UniProt Q3TKT4); experiment: co-IP; BAT cell lysate in IP lysis buffer (50 mM HEPES pH 7.4, 150 mM NaCl, 1% Triton X-100); Dynabeads protein A with anti-Brg1 or anti-V5; IgG controls; immunoblot

Molecule: Brg1 (Smarca4), chromatin remodeling protein, in brown adipocytes (from UniProt Q3TKT4 1-1613)
- binding [1]: binds

Molecule: Brg1-V5, expressed in HeLa cells (from UniProt Q3TKT4 1-1613)
- binding [2]: binds

B1: Letm1 domain containing 1 (Letmd1)-V5, expressed in brown adipocytes (protein, UniProt Q924L1 1-360)
chain: T1 sequence
- binding [3]: binds
